Assay results: patent US20220120732A1, “TREATMENT OF DISEASES WITH MULTIMERIC PEPTIDES” (Ramot at Tel-Aviv University Ltd., priority 2019, published 2022)

What was measured:
[1] = target: CD45 (Receptor type tyrosine-protein phosphatase C) on human PBMCs (human); assay: blocking of CD45 on PBMCs with anti-CD45 antibody or CD45 inhibitor VI; Western blot of phospho-Lck and phospho-ZAP70 (FIG. 17)
[2] = target: CD45 (Receptor type tyrosine-protein phosphatase C) on human PBMCs (human); assay: blocking of CD45 on PBMCs; IFN-gamma ELISA read-out (FIG. 20)
[3] = target: CD45 (Receptor type tyrosine-protein phosphatase C) on human PBMCs (human); assay: figure legend of FIG. 20 (CD45 blocking, IFN-gamma secretion)

binding [1]: binds
binding [2]: binds
binding [3]: binds
Binder: CGHHLLRPRRRKRPHSIPTPILIFRSP [C24D]

No constants are given. Whether binding was seen depends on the method and setting. Binding calls can cover weak binding; strength is not graded here.
